Data on 62 molecules can be found in PubChem BioAssay AID2685 (National Center for Advancing Translational Sciences (NCATS), 2010).

This is one part of the list. Further columns of the screen follow, without active or inactive calls. The list favours compounds with an active or inconclusive main result. Words in brackets tell the shape of the fitted curve; partial curves, single points and poor fits give uncertain potencies.

The nature of the assay: qHTS Assay for Lipid Storage Modulators in Drosophila S3 Cells.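 On cell number change: cells counted by Cell Tracker Red CMTPX staining in the red channel.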 The conditions noted are these: BODIPY lipid droplet fluorescence, 18-24 h; for cell number change: measured here: cell count max response, cells fed with added oleic acid. A digest of the protocol: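 Drosophila S3 cells loaded with oleic acid (400 uM, as added) and compounds at several concentrations; lipid droplets imaged by 488-nm laser-scanning cytometry, 500–530 nm intensity and object ratio to cell channel. Percent activity normalized to 20 uM Triacsin C.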

Setting [1] is: measured here: cell number channel AC50, cells fed with added oleic acid.
[2] abbreviates: measured here: lipid fluorescence (Fed channel) AC50, cells fed with added oleic acid.

For orientation: AC50 means the concentration giving half of the maximal activity seen. Low values mean activity at low concentration, high ones activity only at high concentration.

Consider `COc1cccc(C(=O)NCc2cn3ccsc3n2)c1`, for which the cell number change turned out to be 67.5%.
In the case of `Cc1cccc(N2CCN(CC(O)COc3ccc(Cl)cc3)CC2)c1` (configuration not stated), the cell number change is -34.4%. Further, under setting [1], the AC50 is 16.4 µM [falling, single point]. Also, under setting [2], the half-maximal activity concentration (AC50) was 29.1 µM [falling, single point].
Take `C=CCSc1nc2c(sc3nc(C)cc(C)c32)c(=O)[nH]1`: the cell number change is -12.4%. Also, under setting [2], the AC50 was 0.58 µM [rising, single point].
Regarding `O=C(Nc1ccc(S(=O)(=O)N2CCCCC2)cc1)C1CC(=O)N(c2ccccc2)C1` (configuration not stated), the cell number change was 19.7%. The AC50 under setting [1] is 0.0058 µM [rising, full curve, poor fit].
In the case of `Cc1cccc(NC(=S)N/N=C/c2c[nH]c3ccccc23)c1`, the cell number change was -40%. Further, the half-maximal activity concentration (AC50) under setting [1] was 18.4 µM [falling, single point].
As for `COCCn1c(Cc2ccccc2)nnc1SCC(=O)NC(C)C`, the cell number change was found to be 12.9%. Besides, the half-maximal activity concentration (AC50) under setting [2] was 29.1 µM [falling, single point].
`O=C(Nc1ccc(Cl)cc1)C(c1ccccc1)N1CCOCC1` (configuration not stated): the cell number change is 4.78%.
For the molecule `CCC(C)Sc1nc2c(c(=O)[nH]c(=O)n2C)n1Cc1ccccc1Cl` (configuration not stated), the AC50 under setting [1] was 4.61 µM [rising, partial curve] and the AC50 under setting [2] is 4.11 µM [rising, partial curve].
As to `N#CC1=C(N)Nc2nc3ccccc3n2C1c1ccc(Cl)cc1` (configuration not stated), the AC50 runs as follows: under setting [1], 0.58 µM [falling, single point]; under setting [2], 2.31 µM [rising, partial curve].
For the molecule `CCOc1ccccc1/C=C\c1nc(O)c([N+](=O)[O-])c(=O)[nH]1`, the cell number change worked out at 35.6%. Moreover, under setting [1], the half-maximal activity concentration (AC50) was 32.6 µM [rising, single point]. Under setting [2], the AC50 is 13 µM [rising, partial curve, poor fit].
Consider `CCN(Cc1ccncc1)C(=O)c1cc(COc2c(C)cccc2C)on1`, for which the cell number change was 15.4%. The AC50 under setting [2] is 6.31 µM [rising, single point].
Regarding `CCCNC(=O)CS(=O)Cc1nc(-c2ccc(OC)cc2)oc1C` (configuration not stated), the cell number change turned out to be 17.3%.
Still for that read-out and setting: next, `Cc1cccc(N2C(=O)NC3(CCCCC3)C2=O)c1`: 9.08%.
With `COc1ccc(C(=O)NCC(=O)OCC(=O)Nc2cc(OC)ccc2OC)cc1`, the AC50 under setting [1] is 6.51 µM [falling, single point].
Turning to `CSc1ncccc1C(=O)Nc1cccc(C)n1`, the cell number change was -55.2%.
For `O=C(Nc1c2c(nn1-c1ccccc1)CS(=O)(=O)C2)c1ccco1`, the cell number change worked out at 15.5%. Under setting [2], the AC50 was 0.0206 µM [rising, full curve, poor fit].
Regarding `COc1cccc2oc3ccc(C#Cc4ccccn4)cc3c(=O)c12`, the AC50 under setting [2] was 0.461 µM [falling, partial curve, poor fit].
On to `O=C(CSc1nc(N2CCOCC2)nc(N2CCOCC2)n1)Nc1cccc(C(F)(F)F)c1`, for which the cell number change came out at 31%.
Consider `OCC1CCN(Cc2nc(Cc3ccccc3Cl)no2)CC1`, for which the cell number change was -9.62%. The AC50 under setting [2] was 0.116 µM [falling, full curve, poor fit].
In the case of `O=C(NCc1ccco1)c1ccc(C(=O)NCc2ccco2)s1`, the cell number change was 3.8%.
On to `CC1CCN(S(=O)(=O)c2ccc(C(=O)Nc3nnc(C4CC4)o3)cc2)CC1`, for which the cell number change is -17.7%. The AC50 under setting [1] is 0.0366 µM [falling, full curve, poor fit].
Turning to `O=C(Cc1cccs1)Nc1nc2c(ccc3ccccc32)s1`, the cell number change is -32.2%. Besides, the concentration at half-maximal activity (AC50) under setting [1] is 29.1 µM [falling, single point].
`COC(=O)c1cccc(-c2ccc(C(c3c(C)[nH][nH]c3=O)c3c(C)[nH][nH]c3=O)o2)c1`: the cell number change was -65.7%. The AC50 under setting [1] is 29.1 µM [falling, partial curve, poor fit].
In the case of `CCOC(=O)N1CCN(S(=O)(=O)N2CCCC(C(=O)NCc3ccc(F)cc3)C2)CC1` (configuration not stated), the cell number change is -9.17%. The AC50 under setting [2] was 6.51 µM [falling, single point].
For the molecule `COc1ccc(NC(=O)CCS(=O)(=O)c2ccc3c(c2)CCN3C(C)=O)cc1`, the cell number change turned out to be 8.56%. In addition, the AC50 under setting [2] is 29.1 µM [rising, single point].
In the case of `COc1ccc(C(=O)NCc2ccccc2OC)c(OC)c1`, the cell number change is -6.75%. Moreover, under setting [2], the AC50 was 7.31 µM [rising, partial curve, poor fit].
With `Cc1ccc(S(=O)(=O)CCC(=O)Nc2nc(-c3cccnc3)cs2)cc1`, the half-maximal activity concentration (AC50) under setting [2] is 14.6 µM [falling, partial curve].
On to `CCOC(=O)/C(C#N)=C/C=C1\C=Cc2ccccc2N1CC`, for which the cell number change was -0.955%. For the same molecule, the AC50 under setting [2] was 10.3 µM [falling, partial curve, poor fit].
In the case of `O=C1NC2(CCCCC2)N(C(=O)c2ccccc2)C2=C1CCCC2`, the cell number change was -33.9%. The AC50 under setting [1] was 23.1 µM [falling, single point].
On to `O=C(CNCCC1=CCCCC1)Nc1ccc(N2CCCCCC2)cc1`, for which the cell number change is -90.6%. Under setting [1], the AC50 was 20.6 µM [falling, single point].
Take `C/C(O)=C(\C#N)c1nc2ccccc2[nH]1`: the cell number change is 96.9%. The AC50 under setting [1] is 11.6 µM [rising, partial curve, poor fit]. Under setting [2], the half-maximal activity concentration (AC50) was 20.6 µM [rising, partial curve].
Take `N#CCCn1cc(C(=O)N2CCCCC2)c(-c2cccc([N+](=O)[O-])c2)n1`: the AC50 under setting [2] is 6.51 µM [falling, single point].
For `Cn1cccc1/C=C1/SC(=S)N(CC(=O)O)C1=O`, the cell number change worked out at 15%. The half-maximal activity concentration (AC50) under setting [1] is 0.0058 µM [rising, full curve, poor fit]. The AC50 under setting [2] is 0.231 µM [rising, full curve, poor fit].
As for `CCc1nnc(NC(=O)c2ccc(S(=O)(=O)NCC(C)C)cc2)s1`, the cell number change is -15%. Also, the AC50 under setting [2] was 0.651 µM [falling, single point].
On to `CCc1ccc(-n2nc3cc(C)c(N)cc3n2)cc1`, for which the cell number change is -21.8%.
Consider `O=C(Nc1nc(-c2ccc(F)c(F)c2)cs1)Nc1ccc(F)cc1F`, for which the cell number change amounted to 103%. In addition, the AC50 under setting [1] is 9.2 µM [rising, partial curve]. For the same molecule, the AC50 under setting [2] was 16.4 µM [falling, single point].
`O=C(CCNc1ccc(Br)cc1)c1cccc([N+](=O)[O-])c1`: the cell number change is -44.7%.
On to `O=c1c2cc(N3CCOCC3)ccc2[nH]c(=S)n1CCCN1CCCC1`, for which the cell number change was 45.8%. In addition, the AC50 under setting [1] was 29.1 µM [rising, single point]. The AC50 under setting [2] is 20.6 µM [rising, single point].
As for `CC(NC(=O)NCC1CCCO1)(C(F)(F)F)C(F)(F)F` (configuration not stated), the cell number change was -29.6%. Further, under setting [1], the AC50 is 0.651 µM [falling, full curve, poor fit]. The AC50 under setting [2] is 0.651 µM [falling, full curve].
Consider `COc1ccc(C(C)=O)cc1CC(=O)NCCCn1ccnc1`, for which the cell number change is -0.901%. Under setting [2], the AC50 is 29.1 µM [falling, single point].
Consider `COCCNC(=S)N1CCc2cc(OC)c(OC)cc2C1COc1ccc(C(C)C)cc1` (configuration not stated), for which the cell number change was found to be 0.879%.
Regarding `Cc1cccnc1NC(=O)c1ccc(COc2ccccc2)o1`, the cell number change was 24%. Also, under setting [2], the AC50 was 9.2 µM [rising, partial curve, poor fit].
For `COc1ccc(NC(=S)N2CCN(Cc3ccccc3)CC2)c(OC)c1`, the cell number change was -25.9%. Under setting [1], the AC50 is 0.0731 µM [falling, full curve, poor fit].
With `O=C(Nc1cc(Cl)ccc1Cl)c1ccc(OC(=O)c2ccco2)cc1`, the cell number change turned out to be 101%. Besides, the AC50 under setting [1] is 18.4 µM [rising, single point]. For the same molecule, the AC50 under setting [2] is 29.1 µM [rising, single point].
For `Cc1c(O)c(=O)ccn1C`, the cell number change was determined as 12.8%. Under setting [2], the AC50 was 0.517 µM [rising, full curve, poor fit].
With `C/C(CC(=O)Nc1cccc(F)c1)=N\NC(=O)C(=O)NC1CCCCC1`, the cell number change turned out to be 8.61%. The AC50 under setting [1] is 3.66 µM [falling, partial curve].
With `COC(=O)/C=c1/s/c(=C(/C#N)C(=O)NCc2ccccc2)n(-c2ccccc2)c1=O`, the half-maximal activity concentration (AC50) under setting [1] is 0.58 µM [rising, single point].
Regarding `Cc1ccc(-c2nc3sc4c(N)ncnc4c3c3c2CCCC3)cc1`, the cell number change was found to be 10.4%.
As for `CSc1nnc(-c2cnccn2)n1CCCN1CCCC1=O`, the cell number change is -2.1%. In addition, the AC50 under setting [1] is 0.103 µM [falling, full curve, poor fit].
With `COc1cc(CNCCN2CCOCC2)ccc1OCc1ccc(Cl)cc1Cl`, the cell number change was -59.9%. The AC50 under setting [1] is 29.1 µM [falling, single point]. In addition, under setting [2], the AC50 is 6.51 µM [falling, single point].
With `Cc1ccc(NC(=O)C(C)OC(=O)CCN=C2NS(=O)(=O)c3ccccc32)cc1` (configuration not stated), the cell number change was -13.3%. The AC50 under setting [2] is 2.31 µM [rising, single point].
For `Cc1ccc(C)c(OCC(=O)NCC(c2ccco2)N2CCCCC2)c1` (configuration not stated), the AC50 runs as follows: under setting [1], 3.26 µM [falling, partial curve]; under setting [2], 32.6 µM [falling, single point].
Consider `Nc1ccc2nc(SCC(=O)N3CCN(c4ccccc4)CC3)sc2c1`, for which the cell number change turned out to be 16%. Moreover, under setting [2], the AC50 was 0.164 µM [rising, partial curve, poor fit].
`Cc1cccc(Nc2nnc(SCC(=O)Nc3ccccc3[N+](=O)[O-])s2)c1C`: the cell number change was determined as 12.2%. The AC50 under setting [1] was 6.51 µM [rising, partial curve, poor fit].
In the case of `CCOC(=O)c1ccc(NCc2nc3ccccc3n2C)cc1`, the cell number change was -30.8%. The half-maximal activity concentration (AC50) under setting [1] was 29.1 µM [falling, single point].
Take `O=C(O)C1CCCN1S(=O)(=O)c1ccc2c(c1)CCC2` (configuration not stated): the cell number change came out at 2.49%. Moreover, under setting [2], the AC50 was 5.8 µM [falling, full curve].
Turning to `Clc1ccc(Cn2ccc(C3CC3)n2)cc1`, the cell number change was 4.96%. Moreover, under setting [1], the AC50 is 2.91 µM [falling, single point].
With `O=C(Nc1cccc(-c2nc3ccccc3[nH]2)c1)c1ccc(C(=O)Nc2cccc(-c3nc4ccccc4[nH]3)c2)cc1`, the cell number change was -70.7%. The AC50 under setting [1] was 2.59 µM [falling, full curve]. The half-maximal activity concentration (AC50) under setting [2] was 2.31 µM [falling, full curve].
On to `COCCNC(=O)c1csc2c1CCCC2`, for which the cell number change was 9.67%. Also, under setting [2], the concentration at half-maximal activity (AC50) is 3.26 µM [falling, partial curve].
Take `COC(=O)c1cc(NC(=O)c2cc3ccccc3o2)cc(C(=O)OC)c1`: the cell number change was -29.9%. The AC50 under setting [2] was 13 µM [falling, partial curve].
For the molecule `CCC(=O)c1ccc(OCC(=O)OCC(=O)c2cc(C)n(C3CC3)c2C)cc1`, the cell number change is -7.5%.
As to `Cc1cc(NC(=O)CCC(=O)N(CC(=O)NCC2CCCO2)c2cccc(F)c2)no1` (configuration not stated), the cell number change was 19.6%. The AC50 under setting [2] was 0.13 µM [rising, partial curve, poor fit].
